Substitutions are numbered along the chain they refer to. In names and notes the source's numbering stands. No constants are given. Whether binding was seen depends on the method and setting. Binding can be weak; no strength is given. For part of these data: Where a sequence is shown, tags or fusion partners need not be part of it. For part of these data: Binding seen in cells or lysates may run through a third protein.
How the values were obtained:
[1] = molecular target: T1, OTUD5, endogenous in neonatal rat cardiomyocytes (rat (endogenous in NRCMs)) (UniProt Q2YDU3); assay: co-IP; lysates of NRCMs with or without 4-HNE (40 µM, 6 h); IP with GPX4- or OTUD5-specific antibody or control IgG, probed for GPX4/OTUD5 (reciprocal)
T1 sequence: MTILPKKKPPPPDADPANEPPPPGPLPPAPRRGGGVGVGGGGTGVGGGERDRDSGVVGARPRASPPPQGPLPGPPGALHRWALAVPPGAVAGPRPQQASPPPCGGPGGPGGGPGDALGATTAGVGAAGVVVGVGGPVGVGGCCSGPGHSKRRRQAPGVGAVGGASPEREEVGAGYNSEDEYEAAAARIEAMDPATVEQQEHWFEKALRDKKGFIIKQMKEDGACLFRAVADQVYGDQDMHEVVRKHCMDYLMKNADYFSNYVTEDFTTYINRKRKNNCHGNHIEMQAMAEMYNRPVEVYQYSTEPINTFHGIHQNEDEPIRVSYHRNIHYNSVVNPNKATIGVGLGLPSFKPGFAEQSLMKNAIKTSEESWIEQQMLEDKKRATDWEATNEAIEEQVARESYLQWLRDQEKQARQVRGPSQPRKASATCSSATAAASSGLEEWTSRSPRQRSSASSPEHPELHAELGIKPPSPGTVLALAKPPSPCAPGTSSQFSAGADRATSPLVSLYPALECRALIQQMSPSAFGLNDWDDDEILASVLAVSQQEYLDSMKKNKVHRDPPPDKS

[2] = molecular target: GPX4, endogenous in neonatal rat cardiomyocytes (rat (endogenous in NRCMs)); assay: as above
[3] = molecular target: GPX4, endogenous in neonatal rat cardiomyocytes (rat (endogenous in NRCMs)); assay: proximity ligation; Duolink PLA between GPX4 and OTUD5 in fixed NRCMs, with or without 4-HNE (40 µM, 6 h)
[4] = molecular target: GPX4, endogenous in mouse heart (mouse (endogenous in heart)); assay: co-IP; co-immunoprecipitation from hearts in the MI/R model, ALDH2 cKO mice (Figure S8E,F)
[5] = molecular target: GPX4 mutant C93A (carbonylation-defective); assay: co-IP; lysates of HEK293T cells transfected with GPX4 and Flag-OTUD5 plasmids (wild type or mutants), with or without 4-HNE (40 µM, 6 h); Protein A/G magnetic beads
GST-GPX4 fusion protein = assay: pull-down; GST-GPX4 on GST beads at 4 °C overnight, purified His-OTUD5 added and incubated at 4 °C overnight, with or without 4-HNE (100 µM, 1 h, room temperature); western blotting; both purified

Question: Which binding [1] does the source give for “GPX4, endogenous in neonatal rat cardiomyocytes” here?
Answer: Its binding is “binds”.

B1: OTUD5, endogenous in neonatal rat cardiomyocytes (protein, UniProt Q2YDU3 1-566)
chain: T1 sequence
Question: How did the binding [2] turn out when B1 was run?
Answer: The binding was “binds”.

Question: And the binding [3]?
Answer: The binding was “binds”.

B2: OTUD5, endogenous in mouse heart (protein, UniProt Q3U2S4 1-566)
chain: T1 sequence with G34A, P136T, A498G, D560E
Question: With B2 as the molecule, how does the binding [4] read?
Answer: Its binding is “binds”.

B3: Flag-OTUD5 mutant C247A (carbonylation-defective) (protein, UniProt Q96G74 1-571)
chain: MTILPKKKPPPPDADPANEPPPPGPMPPAPRRGGGVGVGGGGTGVGGGDRDRDSGVVGARPRASPPPQGPLPGPPGALHRWALAVPPGAVAGPRPQQASPPPCGGPGGPGGGPGDALGAAAAGVGAAGVVVGVGGAVGVGGCCSGPGHSKRRRQAPGVGAVGGGSPEREEVGAGYNSEDEYEAAAARIEAMDPATVEQQEHWFEKALRDKKGFIIKQMKEDGACLFRAVADQVYGDQDMHEVVRKHAMDYLMKNADYFSNYVTEDFTTYINRKRKNNCHGNHIEMQAMAEMYNRPVEVYQYSTGTSAVEPINTFHGIHQNEDEPIRVSYHRNIHYNSVVNPNKATIGVGLGLPSFKPGFAEQSLMKNAIKTSEESWIEQQMLEDKKRATDWEATNEAIEEQVARESYLQWLRDQEKQARQVRGPSQPRKASATCSSATAAASSGLEEWTSRSPRQRSSASSPEHPELHAELGMKPPSPGTVLALAKPPSPCAPGTSSQFSAGADRATSPLVSLYPALECRALIQQMSPSAFGLNDWDDDEILASVLAVSQQEYLDSMKKNKVHRDPPPDKS
Question: B3 was tested. Which binding [5] did it give?
Answer: The binding was “binds”.

B4: His-OTUD5 (natural protein)
chain: B3 chain with A247C
modifications: Red-tris-NTA dye on the His tag (MST only)
Question: With B4 as the molecule, how does the binding (GST-GPX4 fusion protein) read?
Answer: The binding was “binds”.
